Data on 2 compounds can be found in PubChem BioAssay AID540317 (National Center for Advancing Translational Sciences (NCATS), 2011).

Protein sequences, listed by entry. Tags and fused reporters are not part of them.
UniProt P83916, whole entry, looked up: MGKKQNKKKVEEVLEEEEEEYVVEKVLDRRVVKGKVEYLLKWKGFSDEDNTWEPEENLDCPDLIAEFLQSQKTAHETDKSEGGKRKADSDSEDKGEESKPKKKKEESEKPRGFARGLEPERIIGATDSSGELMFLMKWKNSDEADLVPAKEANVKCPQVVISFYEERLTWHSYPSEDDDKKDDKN

The structures appear in SMILES notation. What follows is the remainder of the data, with few or none of the hits. Inconclusive results are not listed. Activity calls are given as the source filed them. Calls follow the shape of the dose curve; as a rule, active = well fitted inhibition curve with a large enough effect; inconclusive = small, poorly fitted or top-dose-only effect; inactive = no such curve, though single readings can be large or run the other way.

This assay concerns the target Chromobox protein homolog 1 (Homo sapiens) (UniProt P83916). The experiment in a line: HTS for Inhibitors of HP1-beta Chromodomain Interactions with Methylated Histone Tails. Also: nearly all actives have a fitted effect of over 70% in size. To be noted: AlphaScreen HP1-beta / biotin-H3K9me3 peptide binding; at 114 µM (top of the series). From the text:
As our understanding of epigenetics expands, it is becoming clear that players in this field are potential targets for drug development. This area of epigenetic therapy has established applications for the treatment of cancer and neurological diseases. We have been involved in this field for a number of years and have performed high-throughput screens to identify the first small molecule inhibitors of protein methyltransferases. These methyltransferases target multiple substrates, and thus regulate many arms of an epigenetic pathway. The methylation of different substrates often generates docking sites for effector proteins that harbor binding domains (chromo, tudor, PHD, MBT and ANK repeats). It has been proposed that the binding sites generated for different proteins by these post-translational modifcations mediate downstream effects on chromatin. Consistent with this theory, di- and tri-methylation of histone H3K9 facilitates the binding of heterochromatin protein HP1. The HP1 protein harbors a chromodomain that is responsible for the methyl-dependent interaction between HP1 and lysine 9 of histone H3. […] Low-affinity protein-protein interactions (Kd in the single- to double-digit micromolar range) such as those discussed here have been very difficult to assay by traditional techniques such as fluorescence polarization or fluorescence resonance energy transfer. […]
In general terms: Bead proximity is the source of the signal in Alpha formats.
Consider `CCCCCCCCc1ccc(O)cc1`, for which the activity change, negative = inhibition is inactive: 58.8%. As for `COc1cc2c(c(OC)c1OC)-c1ccc(SC)c(=O)cc1C(NC(C)=O)CC2` (configuration not stated), the activity change, negative = inhibition is inactive: 46.1%.
